Measured values from patent US20230203081A1, “LINCOSAMIDE ANTIBIOTICS AND USES THEREOF” (President and Fellows of Harvard College, priority 2020, published 2023).
At least one compound was matched to its structure with a doubt left.

Tested on: ribosome
Test: Toeprinting analysis (primer extension inhibition) in cell-free translation, ermBL and ermDL templates
Assay type: biochemical
Details: 50 μM
Description: Toeprinting analysis: The ermBL DNA template for toeprinting was generated by a 4-primer cross-over PCR using primers T7, NV1, ermB3-F and ermB3-R. The ermDL template was generated in the same way using primers RLR-fwd, RLR-rev, T7-SD-fwd and T7-SD-rev. In vitro translation in the PURExpress system (New England Biolabs) and toeprinting analysis were carried out as described previously. […]
Primer sequences used for toeprinting are as follows: T7 (TAATACGACTCACTATAGGG); NV1 (GGTTATAATGAATTTTGCTTATTAAC); ermB3-F (TAATACGACTCACTATAGGGCTTAAGTATAAGGAGGAAAAAATATGTTGGTATTCCAAATGCGTAATGTAGATAAAACATCTAC); ermB3-R (GGTTATAATGAATTTTGCTTATTAACGATAGAATTCTATCACTTATTTCAAAATAGTAGATGTTTTATCTACATTACG); RLR-fwd (GGAGGAAAAAATATGACACACTCAATGAGACTTCGTATTTTCCC); RLR-rev (CTATCACTTACAAAGTTGGGAAAATACGAAGTCTCATTGAG); T7-SD-fwd (TAATACGACTCACTATAGGGCTTAAGTATAAGGAGGAAAAAATATGACACACTCAATG); T7-SD-rev (GGTTATAATGAATTTTGCTTATTAACGATAGAATTCTATCACTTACAAAGTTGGGAAAAT).

`CCC[C@@H]1C[C@@H](C(=O)N[C@@H]([C@H]2O[C@H](SC)[C@H](O)[C@@H](O)[C@H]2O)[C@H](C)Cl)N(C)C1` [Clindamycin, clindamycin, reference compound] was tested, and the “translation arrest at the start codons of model ORFs (toeprinting)” value was “allowed a fraction of ribosomes to translate ORFs up to the trap codon”.
